Data reported in US6962709B2, “Immunologically significant herpes simplex virus antigens and methods for identifying and using same” (University of Washington, Fred Hutchinson Cancer Research …, priority 1999, dated 2005).
Part of at least one peptide drawing is inferred or uncertain, most often the ends. Where no end group is shown, it is not given here.

Test system: HLA B*4501 LCL
Experiment: Lysis of LCL by PBMC stimulated with peptide ICP0 92-101 or control clone, four-hour CTL assay
Type: cell-based, human
Procedure: To confirm that patients with HSV-2 infection have T-cells reactive with the newly discovered T-cell antigen circulating in their peripheral blood, peripheral blood mononuclear cells (PBMC) from the patient from whom the lesion-derived clone RW51 was recovered were peptide stimulated. PBMC were cultured for three days at 2×10^6 cells per 1.88 cm^2 well in 2 ml of T-cell medium containing 1.0 μg/ml peptide HSV-2 ICP0 92-101. On the fourth day, IL-2 (32 units/ml) was added. On the eighth day, the cells were washed and restimulated in the same size well with an additional 2×10^6 autologous, irradiated (3300 rad gamma irradiation) PBMC, 1.0 μg/ml of the same peptide, and IL-2 (32 U/ml).
Responders were cultured for an additional nine days in the presence of IL-2 and expanded as necessary. Cytotoxicity assay was performed using autologous or HLA class I-mismatched LCL treated either with nothing, peptide HSV-2 ICP0 92-101 at 1 μg/ml for 18 hours, or infection with HSV-2 strain 333 at MOI 10 for 18 hours. The cytotoxicity assay was a standard four-hour ^51Cr release assay.
Peptide restimulation in bulk format are appropriate for sensitive detection of CTL, while […] formats yield CTL levels, but require prolonged cell replication for detection. In this example, 4×10^6 PBMC in 2 ml T-cell medium were stimulated with 1 μg/ml HSV-2 peptides, and IL-2 (10-30 U/ml) was added on day 3. On day 8, responders were washed and restimulated in 2 ml with 2×10^6 autologous irradiated PBMC, fresh peptide, and IL-2, and split as necessary until assay on day 14-16. For two HLA B*4501-bearing persons including the index subject, convincing HLA class-restricted CD8 CTL were detected that not only lysed peptide-loaded targets, but also killed HSV-2-infected targets and were inhibited by anti-class I mAb (Table 10).

[1] = PBMC stimulated with peptide, E:T 10:1-20:1
[2] = target loaded with 1 μg/ml ICP0 92-101 for 90 minutes

AERQGSPTPA [ICP0 92-101]
percent specific release, effector PO PBMC, target HV HSV-2 (HV = not B*4501): 0% | percent specific release, effector PO PBMC, target HV mock (HV = not B*4501): 4% | percent specific release, effector PO PBMC, target HV peptide (HV = not B*4501): −1% | percent specific release, effector RW PBMC, target HV HSV-2 (HV = not B*4501): 0% | percent specific release, effector RW PBMC, target HV mock (HV = not B*4501): 0% | percent specific release, effector RW PBMC, target HV peptide (HV = not B*4501): −1% | percent specific release, effector PO PBMC, target RW HSV-2 (MOI 5, 18 hours): 33.5% | percent specific release, effector RW PBMC, target RW HSV-2 (MOI 5, 18 hours): 48.2% | percent specific release, effector PO PBMC, target RW mock [1]: 0% | percent specific release, effector RW PBMC, target RW mock [1]: 1% | percent specific release, effector PO PBMC, target RW HSV-2/anti-class I (mAb W6/32 at 10 μg/ml): 5.8% | percent specific release, effector RW PBMC, target RW HSV-2/anti-class I (mAb W6/32 at 10 μg/ml): 12.2% | percent specific release, effector PO PBMC, target RW peptide [2]: 54.9% | percent specific release, effector RW PBMC, target RW peptide [2]: 45.3%
